Source: publication PMC10071617
Results are given in words; binding and its absence hold for the method and conditions named. In cells and extracts the contact can be indirect. Some binding calls cover weakened binding; strength is not graded here. For some assays here: Where a sequence is shown, tags or fusion partners need not be part of it.

The chains behind the UniProt entries cited, without tags or fusion partners.
UniProt P06241: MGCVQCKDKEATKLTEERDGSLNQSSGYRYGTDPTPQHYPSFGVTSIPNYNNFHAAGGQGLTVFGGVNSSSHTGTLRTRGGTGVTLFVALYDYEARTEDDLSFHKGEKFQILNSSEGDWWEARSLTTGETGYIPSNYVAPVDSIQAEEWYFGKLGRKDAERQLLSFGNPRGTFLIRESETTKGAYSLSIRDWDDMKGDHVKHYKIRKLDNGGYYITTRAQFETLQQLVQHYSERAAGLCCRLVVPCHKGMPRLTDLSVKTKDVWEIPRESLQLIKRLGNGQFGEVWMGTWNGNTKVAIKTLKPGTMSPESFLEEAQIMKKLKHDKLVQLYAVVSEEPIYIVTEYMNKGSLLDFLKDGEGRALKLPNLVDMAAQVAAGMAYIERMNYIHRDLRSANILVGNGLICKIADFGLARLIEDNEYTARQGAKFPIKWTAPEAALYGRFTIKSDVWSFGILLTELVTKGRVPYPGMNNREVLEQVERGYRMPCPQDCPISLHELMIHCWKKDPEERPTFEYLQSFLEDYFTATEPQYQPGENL

How the values were obtained:
[1] = molecular target: T1, TOPK (endogenous, MGC803 cells) (human (endogenous in MGC803)) (UniProt Q96KB5); experiment: co-IP; immunoprecipitation with anti-TOPK antibody from MGC803 cells, endogenous proteins; CoIP kit (Thermo Fisher 26147)
T1 sequence: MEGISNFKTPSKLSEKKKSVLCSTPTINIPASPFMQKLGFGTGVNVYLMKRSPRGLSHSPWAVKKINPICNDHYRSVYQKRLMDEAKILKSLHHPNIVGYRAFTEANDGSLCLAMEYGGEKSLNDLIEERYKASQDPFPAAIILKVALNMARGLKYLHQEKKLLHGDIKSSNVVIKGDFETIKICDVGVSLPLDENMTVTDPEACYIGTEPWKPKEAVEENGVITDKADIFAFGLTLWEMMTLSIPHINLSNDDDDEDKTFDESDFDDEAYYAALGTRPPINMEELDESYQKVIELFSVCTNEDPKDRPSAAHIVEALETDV

[2] = molecular target: T2, His-TOPK (T-LAK cell-originated protein kinase, wild type) (UniProt Q96KB5); experiment: pull-down; His-TOPK held on Ni-NTA agarose, incubated with lysate of MGC803 cells (FYN high expression cell line); endogenous FYN detected; only the target purified
T2 sequence: T1 sequence

FYN (endogenous, MGC803 cells) (from UniProt P06241 1-537) (enzyme)
binding [1]: binds
binding [2]: binds
